Laboratory results published in PubChem BioAssay AID1347076 (National Center for Advancing Translational Sciences (NCATS), 2019).
The whole screen tested about 400,000 compounds, of which about 13,000 (3.2%) were called active. The shares of active, inactive and inconclusive entries below differ from those in the screen. The call rests on the fitted dose curve; in most records, active means well fitted cell-killing curve with a large enough effect; inconclusive means small, poorly fitted or top-dose-only effect, or effect the other way; inactive means flat fitted curve, though single readings scatter. Potencies of inconclusive entries are doubtful fits and often do not repeat.
On the % scale 0 is the no-effect control and ±100 the full control effect; potency means the concentration at half of the fitted maximal effect.

Experiment: qHTS assay for MDR1-selective chemotherapeutics: Primary screen using the drug-selected MDR subline cells KB-V1; further: nearly all actives have a fitted effect of over 60% in size
Settings: KB-V1 MDR cells viability, CellTiter-Glo, 72 h; activity change, negative = cytotoxicity: at 46.1 µM (top of the series)
In short: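 Cells of the MDR subline KB-V1 are plated, dosed with compound at multiple concentrations, and incubated 72 h at 37 degrees C; CellTiter-Glo is then added and luminescence read after 10 min.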
For `COc1ccc2oc(-c3ccccc3[N+](=O)[O-])cc(=O)c2c1`, the Potency was active: 5.8 µM.
For `CC1CCN(Cc2ccc(NC(=O)CC3Oc4ccccc4NC3=O)cc2)CC1` (stereo not drawn), the Potency was inconclusive: 3.26 µM [rising, full curve].
For `Cc1ccc2cccc(N=Cc3c(C)[nH]n(-c4ccccc4)c3=O)c2n1`, the Potency was active: 13 µM.
With `N/C(Cc1ccc(Cl)cc1)=N\OC(=O)Cc1ccc([N+](=O)[O-])cc1` the Potency was inconclusive: 18.4 µM [cytotoxic, partial curve, poor fit].
In the case of `O=C(O)c1cc(/C=C/C(=O)c2cc(F)ccc2O)c2c(c1)COCO2`, the “activity change, negative = cytotoxicity” value is reported as inactive: 4.29%.
In the case of `CCCC(=O)c1cc(F)c(N2CCN(S(=O)(=O)c3ccccc3)CC2)cc1C`, the Potency is reported as inconclusive: 7.31 µM [cytotoxic, partial curve].
With `O=C1NC(c2ccccc2)Nc2c1sc(=S)n2-c1ccccc1` (stereo not drawn) the Potency was inconclusive: 32.6 µM [cytotoxic, partial curve, poor fit].
For `CN(C)CC/C=C1/c2ccc(F)cc2Sc2ccc(Cl)cc21`, the “activity change, negative = cytotoxicity” value was inactive: -21.4%.
For `CCN(CCO)Cc1cc(=O)oc2cc3c(cc12)CCC3`, the Potency was inconclusive: 9.2 µM [cytotoxic, partial curve].
In the case of `Cc1ccc(CCNC(=O)c2ccc3c(=O)n(-c4ccccc4)c(=O)[nH]c3c2)cc1`, the Potency is reported as inconclusive: 0.0116 µM [rising, full curve, poor fit].
In the case of `CN(C)C(=O)C1=NOC2(C1)C(=O)Nc1ccccc12` (stereo not drawn), the Potency is reported as inconclusive: 29.1 µM [rising, single point].
With `CCOC(=O)C1=C(c2ccccc2)NC(=S)NC1c1cccc([N+](=O)[O-])c1` (stereo not drawn) the Potency was active: 14.6 µM.
For `COc1cc(C(=O)NCC(c2ccco2)N2CCc3ccccc3C2)cc(OC)c1OC` (stereo not drawn), the Potency was inconclusive: 2.91 µM [cytotoxic, full curve].
With `CCCC[C@@H]1C=C(C(=O)O)[C@H](c2ccc(Cl)c(Cl)c2)N1S(=O)(=O)c1ccc(C)cc1` the “activity change, negative = cytotoxicity” value was inactive: -0.915%.
With `COc1ccc(CCNC(=O)c2cccc(C(=O)NCCc3ccc(OC)cc3)n2)cc1` the Potency was active: 18.4 µM.
For `O=C(C1CCC(CNc2nc(=S)[nH]c3ccccc23)CC1)N1CCN(c2ccccn2)CC1` (stereo not drawn), the Potency was active: 2.59 µM.
For `O=C(O)C1NCCc2ccccc21` (stereo not drawn), the “activity change, negative = cytotoxicity” value was inactive: -2.42%.
For `Cn1cnnc1SCC(=O)Nc1ccc(N2CCCCC2)cc1`, the “activity change, negative = cytotoxicity” value was inactive: -5.4%.
For `Cc1[nH]c2ccccc2c1/C=N/NC(=O)c1cccc(F)c1`, the Potency was inconclusive: 29.1 µM [rising, single point].
In the case of `COc1cccc(Sc2cc(N3CCOCC3)nc(-c3ccccc3)n2)c1`, the Potency is reported as inconclusive: 20.6 µM [cytotoxic, single point].
For `CCOc1ccc(NC(=O)c2ccc(F)c(S(=O)(=O)N3CCN(c4ccccn4)CC3)c2)cc1`, the Potency was active: 2.31 µM.
In the case of `O=S(=O)(Nc1nc2ccccc2nc1N1CCN(c2ccccc2)CC1)c1ccc(F)cc1`, the Potency is reported as active: 5.17 µM.
For `CCOc1ccc2[nH]c(=O)c(CN(Cc3cccs3)C(CC)c3nnnn3C(C)(C)CC)cc2c1` (stereo not drawn), the Potency was inconclusive: 29.1 µM [cytotoxic, single point].
In the case of `Cc1cc2c(=O)n(C)c(SCC(=O)c3cc4ccccc4o3)nc2s1`, the “activity change, negative = cytotoxicity” value is reported as inactive: 0%.
For `COc1ccc(Oc2c(Cl)cnn(-c3ccccc3)c2=O)cc1`, the Potency was inconclusive: 29.1 µM [cytotoxic, single point].
With `CCOC(=O)N1CCN(C(=O)CS(=O)(=O)c2cn(Cc3ccccc3C)c3ccccc23)CC1` the Potency was inconclusive: 4.11 µM [cytotoxic, full curve, poor fit].
For `c1ccc2c(Nc3ccc4c(c3)OCCO4)c3c(nc2c1)CCCC3`, the Potency was inconclusive: 18.4 µM [cytotoxic, partial curve].
In the case of `S=c1nc(-c2ccccc2Br)[nH][nH]1`, the “activity change, negative = cytotoxicity” value is reported as inactive: 2.01%.
For `O=C(CCCCC(=O)Nc1c(I)cc(I)c(C(=O)O)c1I)Nc1c(I)cc(I)c(C(=O)O)c1I`, the “activity change, negative = cytotoxicity” value was inactive: 11.8%.
In the case of `O=C(Nc1ccc(Br)cc1)c1cccc(N2C(=O)C3C4C=CC(C4)C3C2=O)c1` (stereo not drawn), the Potency is reported as inconclusive: 23.1 µM [cytotoxic, partial curve].
For `c1ccc2c(c1)CC(N1CCCCC1)c1ccccc1N2` (stereo not drawn), the “activity change, negative = cytotoxicity” value was inactive: -4.65%.
With `O=C(O)C[C@@H](CNC(=O)COc1ccc2ccc(=O)oc2c1)c1ccc(Cl)cc1` the Potency was inconclusive: 6.51 µM [rising, full curve].
With `O=C(CCNC(=O)Cn1ccc2ccccc2c1=O)NCCCN1CCOCC1` the “activity change, negative = cytotoxicity” value was inactive: 23.4%.
For `COc1ccc(/C=N/OCC(=O)NCC(C)C)c(OC)c1`, the “activity change, negative = cytotoxicity” value was inactive: 6.69%.
In the case of `Oc1ccc(/C=N/Nc2nc(N3CCCC3)nc(N3CCCC3)n2)cc1O`, the “activity change, negative = cytotoxicity” value is reported as inactive: -11.8%.
In the case of `CC(C)NC(=O)c1ccc(COc2ccc(C(C)(C)C)cc2)o1`, the Potency is reported as inconclusive: 32.6 µM [cytotoxic, partial curve, poor fit].
In the case of `Cc1cc(N2C(=O)C(O)=C(C(=O)c3ccc(C)o3)C2c2ccc(OCc3ccccc3)cc2)no1` (stereo not drawn), the Potency is reported as inconclusive: 16.4 µM [cytotoxic, single point].
In the case of `O=[N+]([O-])c1cccc(-c2ccc(/C=N/Nc3nc(N4CCCCC4)nc(N4CCCCC4)n3)o2)c1`, the Potency is reported as inconclusive: 20.6 µM [cytotoxic, partial curve, poor fit].
With `Cc1nc(NCCN2CCOCC2)c2nnn(Cc3ccccc3Cl)c2n1` the Potency was active: 6.51 µM.
With `O=C(O)c1cc(S(=O)(=O)N(Cc2ccccc2)c2ccc(Cl)cc2)ccc1Cl` the “activity change, negative = cytotoxicity” value was inactive: 4.82%.
With `CC1(CCc2ccccc2)NC(=O)N(CC(=O)Nc2ccc(OC(F)F)cc2)C1=O` (stereo not drawn) the Potency was active: 20.6 µM.
With `Cc1cc(C(=O)N2CCN(c3cccc(Cl)c3)CC2)c(C)o1` the “activity change, negative = cytotoxicity” value was inactive: 0%.
In the case of `O=C(Nc1ccc(C(F)(F)F)cc1)N1CCN(c2ccnc3cc(Cl)ccc23)CC1`, the Potency is reported as inconclusive: 9.2 µM [cytotoxic, partial curve].
With `N#Cc1sc2nc3c(c(-c4ccco4)c2c1N)CCCC3` the Potency was inconclusive: 29.1 µM [cytotoxic, single point].
For `Cc1cc(OCC(=O)N2CCc3ccccc3C2)c(C)cc1Br`, the “activity change, negative = cytotoxicity” value was inactive: -4.16%.
For `O=C(CNC(=S)N(Cc1ccccc1F)C1CCCCC1)NCCCN1CCOCC1`, the Potency was inconclusive: 20.6 µM [cytotoxic, partial curve, poor fit].
With `O=C(O)c1ccc(/C=C2\COc3ccccc3C2=O)cc1` the “activity change, negative = cytotoxicity” value was inactive: -15%.
In the case of `CCN1C(=O)C(Cc2nc3ccccc3c(=O)n2-c2ccc(OC)cc2)c2ccccc21` (stereo not drawn), the “activity change, negative = cytotoxicity” value is reported as inactive: 0.177%.
In the case of `C=CCNCCOCCOc1ccccc1-c1ccccc1`, the “activity change, negative = cytotoxicity” value is reported as inactive: -13.2%.
With `O=C(O)c1ccc(CSc2nnc(-c3ccc(Cl)cc3)o2)cc1` the Potency was inconclusive: 8.2 µM [rising, partial curve, poor fit].
For `O=C1CC[C@@H]2CC3(C[C@@H]4CCN1[C@H]24)Nc1cc([N+](=O)[O-])ccc1NC3=NC1CCCCC1` (stereo partly drawn), the Potency was inconclusive: 25.9 µM [rising, partial curve, poor fit].
In the case of `Cn1c(CSc2ncccn2)nnc1SCC(=O)N1CCCC1`, the Potency is reported as inconclusive: 16.4 µM [rising, single point].
In the case of `COc1ccc2cc(C3(C)NC(=O)N(CC(=O)NCc4ccco4)C3=O)ccc2c1` (stereo not drawn), the Potency is reported as inconclusive: 23.1 µM [cytotoxic, single point].
With `Cc1ccc(C)c(NC(=O)CSc2nnc([C@@H](N)Cc3ccccc3)o2)c1` the Potency was inconclusive: 29.1 µM [cytotoxic, single point].
For `CN(C)c1nc(N(C)C)nc(N(C#N)CCOc2ccccc2)n1`, the Potency was inconclusive: 20.6 µM [cytotoxic, single point].
With `Cc1noc(C)c1-c1ccc(C(=O)NCC2CC2)c2occc12` the Potency was inconclusive: 18.4 µM [cytotoxic, partial curve, poor fit].
In the case of `Cc1ccc(Nc2nc3c(s2)CCC3)c(C)c1`, the “activity change, negative = cytotoxicity” value is reported as inactive: 9.76%.
For `c1ccc2c(c1)OCCOCCOCCOCCOc1ccccc1OCCOCCOCCO2`, the Potency was active: 3.66 µM.
For `Cc1ccc2[nH]cc(CCNC(=O)c3ccc4c(c3)OCO4)c2c1`, the “activity change, negative = cytotoxicity” value was inactive: 3.87%.
For `C/C(=N\NC(=O)Cc1ccc(Cl)cc1)c1ccccc1O`, the Potency was inconclusive: 5.17 µM [cytotoxic, full curve, poor fit].
For `CC(C)NS(=O)(=O)c1ccc(NC(=O)NC2CCCCC2)cc1`, the Potency was inconclusive: 29.1 µM [cytotoxic, partial curve, poor fit].
In the case of `Cc1ccc(-n2c(=O)c3c4c(sc3n(CC(=O)Nc3ccccc3C)c2=O)CCCCC4)cc1C`, the “activity change, negative = cytotoxicity” value is reported as inactive: -14%.
In the case of `CCN(C(=O)Cn1c(=O)oc2cc(S(=O)(=O)N3CCCC3)ccc21)c1ccc(OC)cc1`, the Potency is reported as inconclusive: 23.1 µM [cytotoxic, partial curve, poor fit].
With `NCC(c1ccc(Cl)cc1Cl)c1c[nH]c2ccccc12` (stereo not drawn) the Potency was inconclusive: 23.1 µM [cytotoxic, single point].
For `Cn1c(CN2CCN(CCO)CC2)c(C#N)c2ccccc21`, the “activity change, negative = cytotoxicity” value was inactive: 8.19%.
For `O=C1C(c2ccnc3ccccc23)=C(O)c2ccccc21`, the Potency was inconclusive: 8.2 µM [cytotoxic, partial curve].
With `COc1cccc(/C=N/NC(=O)c2cc3cc([N+](=O)[O-])ccc3s2)c1O` the Potency was inconclusive: 9.2 µM [cytotoxic, partial curve].
With `Cc1ccc(Cl)cc1NC(=S)N/N=C/c1cccc2ccccc12` the Potency was active: 2.06 µM.
In the case of `CCOC(=O)C1C(=O)NC(SCC(=O)OC)=C(C#N)C1c1ccccc1OCC` (stereo not drawn), the Potency is reported as inconclusive: 14.6 µM [cytotoxic, partial curve].
With `CC(C)C(NC(=O)c1c(F)cccc1F)C(=O)NC1CC(C)(C)NC(C)(C)C1` (stereo not drawn) the “activity change, negative = cytotoxicity” value was inactive: 1.06%.
With `COc1ccc(Cc2nc3ccc(C(=O)NCCn4cccn4)cc3o2)cc1` the activity change, negative = cytotoxicity was inconclusive: -30.5% [cytotoxic].
With `CC(C)C(=O)NC(NC(=S)Nc1cccc2cccnc12)C(Cl)(Cl)Cl` (stereo not drawn) the Potency was active: 23.1 µM.
For `CCN(CC)c1ccc(-c2nc(-c3ccco3)no2)cc1[N+](=O)[O-]`, the “activity change, negative = cytotoxicity” value was inactive: 14.4%.
